Test results taken from PubChem BioAssay AID445 (National Center for Advancing Translational Sciences (NCATS), 2006).
The other results are listed elsewhere or left out. The main result of the screen is listed elsewhere. These columns were measured beside it and carry no call. The list favours compounds with an active or inconclusive main result. Words in brackets tell the shape of the fitted curve; partial curves, single points and poor fits give uncertain potencies.

experiment: IkB Signaling; details: ABC-DLBCL IkBa-CBG/CBR dual luciferase ratio (green luciferase fused to IkBa over red control in OCI-Ly3 lymphoma cells), 4 h; measured here: control luc red channel unless noted
How it was run: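 Luminescence ratio of IκBα-fused green versus native red beetle luciferase in OCI-Ly3 cells, 4 h post-doxycycline with compound; red signal alone, scaled from basal (0%) to zero light (-100%), flagged nonspecific or cytotoxic effects.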

Row | SMILES | AC50
1 | Cc1ccc(C)c(N2CCN(S(=O)(=O)c3c(C(=O)N4CCC(C)CC4)c(C)n(C)c3C)CC2)c1 | 39.8 µM [falling, single point]
2 | O=C(COc1ccccc1)NCC(c1ccc(Cl)cc1)N1CCCCC1 (stereo not given) | 31.6 µM [falling, partial curve]
3 | Cc1cccc(CC(=O)N2CC(=O)Nc3ccc(Br)cc3C2c2ccc(F)cc2)c1 (stereo not given) | 10 µM [falling, partial curve]
4 | CC(C)N(C(=O)CSc1cn(CC(=O)N2CCCCCC2)c2ccccc12)C(C)C | 25.1 µM [falling, single point]
5 | COc1cccc(/C=C/c2nc(C#N)c(N3CCC(C(N)=O)CC3)o2)c1 | 6.31 µM [falling, partial curve]
6 | COc1ccc(Br)cc1S(=O)(=O)Nc1cc(-c2cn3ccccc3n2)ccc1C | 6.31 µM [rising, single point]
7 | Cc1ccc(C)c(-c2nnc(OCC(=O)Nc3cc(C)on3)c3ccccc23)c1 | 39.8 µM [falling, single point]
8 | COc1ccccc1Nc1sc(C(=O)c2ccc(F)cc2)c(N)c1S(=O)(=O)c1ccc(C)cc1 | 15.8 µM [falling, partial curve, poor fit]
9 | COc1ccc(CNC(=O)CCc2c(C)nc3c(c(C)nn3-c3ccccc3)c2C)cc1 | 15.8 µM [falling, partial curve]
10 | Cc1ccc(-n2ncc3c(Nc4cccc(Cl)c4)ncnc32)c(C)c1 | 39.8 µM [falling, single point]
11 | CCCCN(C)S(=O)(=O)c1ccc(C(=O)Nc2nnc(-c3cccs3)o2)cc1 | 10 µM [falling, partial curve]
12 | COc1cccc(-c2nn(-c3ccccc3)cc2C(=O)Nc2nccs2)c1 | 3.98 µM [falling, full curve]
13 | COc1cc(NC(=O)C2=CC(c3ccc(F)cc3)=NS(=O)(=O)N2C)cc(OC)c1OC | 2.51 µM [falling, full curve]
14 | Nc1ccc(N2CCCCCC2)cc1 | 15.8 µM [falling, partial curve]
15 | O=C(CSc1nccn1Cc1ccc(F)cc1)Nc1nc2ccccc2s1 | 39.8 µM [falling, single point]
16 | CCN(Cc1ccccc1)C(=O)C1CCN(S(=O)(=O)c2ccc3c(c2)CCCN3C(C)=O)CC1 | 2 µM [rising, partial curve]
17 | COc1ccc(Cl)cc1NC(=O)c1cn(C2CCCC2)c(=O)c2c1c1ccccc1n2C | 20 µM [falling, single point]
18 | O=C(NCC(c1cccs1)S(=O)(=O)c1ccccc1)c1ccc(C(F)(F)F)cc1 (stereo not given) | 0.0501 µM [falling, full curve, poor fit]
19 | O=C(Nc1ccc(F)cc1)c1ccc2c(=O)n3c(nc2c1)CCCCC3 | 31.6 µM [falling, single point]
20 | Cc1cccc(N(CC(=O)Nc2ccccc2C(F)(F)F)S(=O)(=O)c2ccccc2)c1C | 25.1 µM [falling, partial curve]

Quoted at random: three compounds from above.
Row | SMILES | AC50
14 | Nc1ccc(N2CCCCCC2)cc1 | 15.8 µM [falling, partial curve]
15 | O=C(CSc1nccn1Cc1ccc(F)cc1)Nc1nc2ccccc2s1 | 39.8 µM [falling, single point]
6 | COc1ccc(Br)cc1S(=O)(=O)Nc1cc(-c2cn3ccccc3n2)ccc1C | 6.31 µM [rising, single point]

Remaining list, next part.

Row | SMILES | AC50
21 | CN(C)CCNC(=O)Cn1ccc2cc(S(=O)(=O)N3CCCCCC3)ccc21 | 31.6 µM [falling, single point]
22 | COc1ccc(CNC(=O)CSc2ncc3c(n2)-c2ccc(Cl)cc2N(Cc2ccccc2)S3(=O)=O)cc1 | 5.01 µM [falling, partial curve, poor fit]
23 | Cc1cc(Cl)ccc1OCC(=O)N(Cc1ccco1)Cc1ccccc1F | 31.6 µM [falling, single point]
24 | O=C(CN(c1ccccc1)S(=O)(=O)c1ccccc1)N1CCN(Cc2ccc3c(c2)OCO3)CC1 | 12.6 µM [falling, partial curve]
25 | COc1ccc(-c2noc(-c3ccc(N4CCCC4)c([N+](=O)[O-])c3)n2)cc1OC | 6.31 µM [falling, partial curve]
26 | CCc1ccc(-n2nc(C)c3c(C(=O)N4CCN(c5ccccc5)CC4)cc(C)nc32)cc1 | 15.8 µM [falling, partial curve]
27 | Nc1nc(SCc2ccc(Cl)cc2)ns1 | 0.126 µM [rising, full curve]
28 | CCOc1cc(C2NC(=O)c3c(sc4c3CCN(C)C4)N2)ccc1OC(=O)c1ccc(Br)cc1 (stereo not given) | 2.51 µM [rising, full curve, poor fit]
29 | COc1ccc(NC(=O)c2ccco2)cc1NC(=O)C(C)(C)Oc1ccc(Cl)cc1 | 12.6 µM [falling, partial curve]
30 | Cc1cccc(C)c1-n1ncc(C(=O)O)c1C1CCN(C(=O)OC(C)(C)C)CC1 | 25.1 µM [falling, partial curve, poor fit]
31 | CCOC(=O)Cc1nnc2c(Nc3ccc(C)cc3)nc3nonc3n12 | 25.1 µM [falling, partial curve]
32 | COc1ccc(-c2noc(-c3ccc(N4CCOCC4)c([N+](=O)[O-])c3)n2)cc1 | 12.6 µM [falling, single point]
33 | CC1=C(C(=O)Nc2ccccc2C)C(c2cccs2)n2nc(SCc3ccccc3)nc2N1 (stereo not given) | 3.16 µM [falling, full curve]
34 | CCc1ccc(-n2nc(CO)c(C(=O)NCCOC)n2)cc1 | 0.631 µM [rising, full curve]
35 | O=C(O)c1cc(/C=N\O)ccc1OCc1ccccc1 | 20 µM [falling, partial curve]
36 | CCn1c(COc2ccccc2)nnc1SCC(=O)Nc1ccc2c(c1)OCCO2 | 31.6 µM [falling, partial curve]
37 | CC(=O)c1ccc(NC(=O)C2CCN(c3nnc(C)c4c(C)n(-c5ccccc5)nc34)CC2)cc1 | 39.8 µM [rising, single point]
38 | CC#C[C@]1(O)CC[C@H]2[C@@H]3CCC4=CC(=O)CCC4=C3[C@H](c3ccc(N(C)C)cc3)C[C@@]21C | 31.6 µM [falling, partial curve]
39 | COc1ccc(NCc2cccn2-c2nnc(N3CCCCCC3)s2)cc1 | 39.8 µM [falling, single point]
40 | COc1ccc(NC(=O)CSC2=Nc3ccccc3C3=NC(CC(=O)NCCc4ccccc4)C(=O)N23)cc1 (stereo not given) | 2 µM [rising, partial curve]
